# According to PubChem BioAssay AID720535 (National Center for Advancing Translational Sciences (NCATS), 2013):
# About 420 (26%) of roughly 1,600 compounds were called active. The shares of active, inactive and inconclusive entries below differ from those in the screen. Calls come from the whole dose curve; as a rule, active = well fitted inhibition curve with a large enough effect; inconclusive = small, poorly fitted or top-dose-only effect; inactive = flat fitted curve, though single readings scatter. Potencies of inconclusive entries are doubtful fits and often do not repeat.
# Assay: qHTS for Inhibitors of TGF-b: Cytotox Counterscreen for Cherry Picks; note: nearly all actives have a fitted effect of over 70% in size
# Settings: HepG2 CAGA-GFP viability, ATP luminescence, 18 h, cells stimulated with TGF-beta, 500 pg/mL; series mostly up to 46.1 µM
# Excerpt: TGF-b is a main component in the TGF-b signaling pathway which plays diverse roles in cellular and development pathways. TGF-b is mediated by transcription factors called "Smads". Although the Smad-dependent pathway is the primary canonical TGF-b signaling mode, TGF-b1 can also activate alternative signaling pathways, including those involving MAPK (ERK, JNK and p38). This interaction may mediate or enhance Smad-dependent responses, or can exert Smad-independent effects. The complexity of this signaling cascade allows the TGF-b superfamily to perform unique, overlapping or redundant functions. We believe that targeting the TGF-beta pathway at the Smad-transcription factor level may eliminate the consequences of disrupting the entire pathway and offer specificity without affecting other signaling pathways. Smad3 is the primary transducer of TGF-b's signals and Smad3 regulates many functions attributed to TGF-b signaling. We hypothesize that Smad3 inhibitors will selectively eliminate Smad3-specific TGF-beta signals without undesired off-target effects. We aim to identify Smad3-small molecule antagonists using a quantitative high throughput screening (qHTS) approach. A high-throughput assay was developed to screen the NIH Molecular Libraries Small Molecule Repository (MLSMR). This is a cell based assay, where TGF-b is tagged with GFP. This is a counterscreen that evaluates the cytotoxicity of the compounds that were identified as hits in the primary cell-based screen (AID 588855). MH087449NIH Chemical Genomics Center [NCGC] NIH Molecular Libraries Probe Centers Network [MLPCN] MLPCN Grant: MH087449 Assay Submitter (PI): Sushil Rane, National Institute of Diabetes and Kidney Diseases
# Suspensions of trypsinized HEPG2 CAGA-GFP cells were dispensed into white, tissue culture-treated, solid 1536-well plates at 5uL/well (1000 cells/well final concentration) in DMEM medium supplemented with 1% FBS. Plates were incubated at 37 degrees C for 2 hours, after which 23 nL of compounds or DMSO were delivered to each well using a pin tool. One uL of recombinant TGF-beta in DMEM (1% FBS) was then dispensed (500 pg/mL final concentration), and plates were incubated at 37 degrees C for 18 hours. Two uL of CellTiter Glo (Promega), a luminescence-based viability reagent, was dispensed, followed by a 10 minute room temperature incubation. The plates were then measured on a PerkinElmer ViewLux plate reader for luminescence (clear filter) using a 5 second exposure. The %Activity was determined from the corrected luminescence values. Wells containing media only (no cells) were used to normalize %Activity of identified toxic compounds; media-only wells corresponded to 100%Activity (complete cell-killing), while DMSO-dosed cell controls were used to normalize 0%Activity (no toxicity). Concentration-response curves were fitted to the signals arising from the resulting luminescence. The concentration-effect curves were then classified based on curve quality (r2), response magnitude and degree of measured activity, and compounds were subsequently categorized based on their curve class.
# Potency is the fitted concentration of half-maximal effect.
row,SMILES,Potency
1,Cc1cc(NC(=O)CS(=O)(=O)c2cn(Cc3cccc(Cl)c3)c3ccccc23)no1,inactive
2,CC[C@H](C)C1OC(=O)[C@@H](C)[C@@H](CC)NC(=O)[C@H](C)N(C)C(=O)C(C)(C)C(=O)C(C)NC(=O)[C@H](Cc2ccc(OC)cc2)N(C)C(=O)[C@H](C(C)C)N(C)C(=O)CNC(=O)[C@H](CC(C)C)N(C)C(=O)CNC1=O (stereo not given in full),"inconclusive: 1.3 µM [inhibitor, full curve]"
3,O=C1OCCN1C(=O)[C@H]1[C@H](c2ccccc2)C(c2cccc(Cl)c2)=NN1c1ccc(Br)cc1,inactive
4,COc1ccc(OC)c(NC(=O)NNC(=O)CCCOc2ccc(Cl)cc2C)c1,inactive
5,O=C(Nc1ccc(Cl)cc1)c1cc2c(cc1O)[nH]c1ccccc12,active: 5.17 µM
6,Cc1cccc(N2CCN(C(=O)c3c(C)nn(Cc4ccccc4Cl)c3C)CC2)c1C,"inconclusive: 18.4 µM [inhibitor, single point]"
7,O=S(=O)(Nc1cc(Sc2cccc3cccnc23)c(O)c2ccccc12)c1ccc(F)cc1,active: 14.6 µM
8,S=C(NCc1ccco1)Nc1ccc(Oc2ccc(Cl)cc2)cc1,"inconclusive: 18.4 µM [inhibitor, partial curve]"
9,COC(=O)N/N=C/c1cn(CCOc2ccccc2)c2ccccc12,active: 3.26 µM
10,CCc1ccc(NC(=O)COc2ccc(/C=C(/C#N)c3nc4ccccc4[nH]3)cc2OC)cc1,"inconclusive: 6.51 µM [inhibitor, single point]"
11,O=C(NC1CCCCC1)C(c1cccnc1)N(C(=O)CCl)c1cccc(Cl)c1 (stereo not given),active: 9.2 µM
12,Clc1cccc(Cc2c(-c3cccc(Cl)c3)nc3ccc(Cl)cn23)c1,"inconclusive: 18.4 µM [inhibitor, single point]"
13,CC(=O)Nc1ccc(SC[C@H](Cc2ccccc2)N2CC[C@@H](C(C)(C)C)CCC2=O)cc1,"inconclusive: 16.4 µM [inhibitor, single point]"
14,COc1cccc2c1C(=O)c1c(O)c3c(c(O)c1C2=O)C[C@@](O)(C(=O)CO)C[C@@H]3OC1CC(N)C(O)C(C)O1 (stereo not given in full),active: 1.3 µM
15,COc1ccc(C(NC(=O)C2CCN(CCOc3ccc(Cl)cc3Cl)CC2)c2cccs2)cc1 (stereo not given),"inconclusive: 23.1 µM [inhibitor, single point]"
16,Cc1ccc2nc(N3CCN(C(=O)c4ccc(F)cc4)CC3)c(C#N)cc2c1,inactive
17,CC1(C(=O)Nc2ccccc2Cc2ccccc2)CCN1Cc1ccccc1Cl (stereo not given),"inconclusive: 16.4 µM [inhibitor, single point]"
18,COc1ccc2[nH]c3c(c2c1)CCN1C(=O)C(CC(=O)NCc2cccc(C(F)(F)F)c2)C[C@H](C(=O)N2CCCCC2)[C@@]31C (stereo not given in full),inactive
19,CCN(CC)S(=O)(=O)c1cccc(NC(=O)Nc2cccc(C(F)(F)F)c2)c1,"inconclusive: 5.8 µM [inhibitor, full curve]"
20,Cc1nnc(SC(=O)N2c3ccccc3Sc3ccccc32)s1,active: 14.6 µM
21,Nc1nc(Nc2ccccc2)sc1C(=O)c1ccccc1,active: 3.66 µM
22,Cc1ccc(NC(=O)Cc2ccccc2F)cc1S(=O)(=O)N1CCCCCC1,"inconclusive: 18.4 µM [inhibitor, partial curve]"
23,O=C(Oc1c(Cl)cc(Cl)c2cccnc12)c1cccs1,"inconclusive: 6.51 µM [inhibitor, single point]"

# 3 entries from above in a different format.
row | SMILES | Potency
14 | COc1cccc2c1C(=O)c1c(O)c3c(c(O)c1C2=O)C[C@@](O)(C(=O)CO)C[C@@H]3OC1CC(N)C(O)C(C)O1 (stereo not given in full) | active: 1.3 µM
15 | COc1ccc(C(NC(=O)C2CCN(CCOc3ccc(Cl)cc3Cl)CC2)c2cccs2)cc1 (stereo not given) | inconclusive: 23.1 µM [inhibitor, single point]
16 | Cc1ccc2nc(N3CCN(C(=O)c4ccc(F)cc4)CC3)c(C#N)cc2c1 | inactive

# Further results follow:

row,SMILES,Potency
1,Cc1ccc(C(=O)Nc2cccc3[nH]c(C(F)(F)F)nc23)cc1,"inconclusive: 16.4 µM [inhibitor, partial curve, poor fit]"
2,O=C1c2cc(Cl)ccc2-c2c(O)cc(Cl)cc21,"inconclusive: 23.1 µM [inhibitor, single point]"
3,CCOc1ccc2nc3cc(NCc4ccc(OC)cc4)ccc3c(N)c2c1,active: 7.31 µM
4,O=C(COc1cccc(F)c1)N[C@@H](Cc1ccccc1)c1nc2ccccc2[nH]1,inactive
5,O=C(Nc1csc([N+](=O)[O-])c1)Nc1ccccc1Cl,"inconclusive: 13 µM [inhibitor, partial curve]"
6,COc1ccccc1CCC(=O)N(C)CC(=O)Nc1ccc(Cl)c(C(F)(F)F)c1,inactive
7,CC(C)(C)OC(=O)NCCc1nnc(SCc2cccc(Cl)c2)o1,inactive
8,COc1cc(CN2CCc3ccccc3C2)ccc1O,active: 14.6 µM
9,O=C(Nc1cccc(C(F)(F)F)c1)C1Cc2c(-c3ccc(Cl)cc3)ccnc2O1 (stereo not given),"inconclusive: 23.1 µM [inhibitor, partial curve]"
10,COc1ccc(CCNC(=O)c2ccc(-c3ccc([N+](=O)[O-])cc3Cl)o2)cc1OC,"inconclusive: 7.31 µM [inhibitor, partial curve]"
11,CC(=NNc1nc2ccccc2o1)c1cc2ccccc2cn1,active: 18.4 µM
12,NC1=NC[C@@H](Cc2ccc(O)cc2)N1CCC12CC3CC(CC(C3)C1)C2,inactive
13,CCCCc1ccc(NC(=O)CN(C)CC(=O)Nc2ccccc2Cl)cc1,inactive
14,CCC(C)Sc1cccc(-c2nc3cc(C)ccn3c2NCc2ccccc2)c1 (stereo not given),"inconclusive: 16.4 µM [inhibitor, single point]"
15,O=C(COc1ccc(C(=O)c2ccccc2)cc1)NCc1ccc(F)cc1,inactive
16,CCOC(=O)C1CCCN(C(=O)Cc2ccc(C)cc2)C1 (stereo not given),inactive
17,Cc1ccc(-n2c(SCC(N)=O)nc3c(c2=O)C2(CCCC2)Cc2ccccc2-3)cc1,active: 14.6 µM
18,Cc1ccc(NC(=O)COC(=O)C2(c3ccc(Cl)cc3)CCCC2)cc1,"inconclusive: 23.1 µM [inhibitor, partial curve]"
19,Cc1cc(N2CCN(C)CC2)ccc1NC(=O)c1c2c(nc3ccccc13)CCN(Cc1ccccc1)C2,active: 2.59 µM
20,O=C(c1c[nH]c(C(=O)N2CCN(c3ccccc3F)CC2)c1)c1cccc(Cl)c1Cl,"inconclusive: 11.6 µM [inhibitor, partial curve]"
21,COc1ccccc1N1CCN(C(=O)c2ccc(-c3ccc(Cl)cc3)o2)CC1,active: 11.6 µM
22,CC(C)C[C@H]1CNC(=S)N1C[C@H]1CCCN1C[C@H](Cc1ccccc1)N1C[C@H](Cc2ccc(O)cc2)N(CCc2ccccc2)C1=S,inactive
